No constants are given. Whether binding was seen depends on the method and setting. Binding seen in cells or lysates may run through a third protein. Some results given as binding are weak or reduced against the parent protein; the word gives no strength.
Experiments:
[1] = target: cardiac sarco-endoplasmic reticulum Ca2+ ATPase (SERCA2a), wild type, expressed in HEK293 cells (UniProt P16615); assay: co-IP; HEK293 cells transfected with SERCA2a alone or with an acetyltransferase (p300, CBP, PCAF, GCN5); lysates in RIPA buffer immunoprecipitated with anti-SERCA2a antibody, blotted with anti-p300 antibody
[2] = target: cardiac sarco-endoplasmic reticulum Ca2+ ATPase (SERCA2a), wild type, expressed in HEK293 cells (UniProt P16615); assay: co-IP; HEK293 cells transfected with SERCA2a alone or with different dosages of p300 plasmid; sodium butyrate treatment; lysates incubated with anti-Flag agarose beads, blotted with anti-p300 antibody
[3] = target: SERCA2a, endogenous in human heart (human (endogenous in human heart)) (UniProt P16615); assay: co-IP; endogenous proteins; SERCA2a immunoprecipitated from normal and heart failure human patient hearts, RIPA buffer
phospholamban (PLN) = phospholamban (PLN) (UniProt P26678); assay: co-IP; IP experiments in overexpression systems, told in the discussion only, data not shown; which partner was precipitated is not told

Amino acid sequences for entries named in this document (tags omitted). A change or cut given only in a name is not applied to a line headed by its entry. Chains listed by the source or under a name are the forms on record and can include a tag or linker.
cardiac sarco-endoplasmic reticulum Ca2+ ATPase (SERCA2a), wild type, expressed in HEK293 cells (P16615-2, form named): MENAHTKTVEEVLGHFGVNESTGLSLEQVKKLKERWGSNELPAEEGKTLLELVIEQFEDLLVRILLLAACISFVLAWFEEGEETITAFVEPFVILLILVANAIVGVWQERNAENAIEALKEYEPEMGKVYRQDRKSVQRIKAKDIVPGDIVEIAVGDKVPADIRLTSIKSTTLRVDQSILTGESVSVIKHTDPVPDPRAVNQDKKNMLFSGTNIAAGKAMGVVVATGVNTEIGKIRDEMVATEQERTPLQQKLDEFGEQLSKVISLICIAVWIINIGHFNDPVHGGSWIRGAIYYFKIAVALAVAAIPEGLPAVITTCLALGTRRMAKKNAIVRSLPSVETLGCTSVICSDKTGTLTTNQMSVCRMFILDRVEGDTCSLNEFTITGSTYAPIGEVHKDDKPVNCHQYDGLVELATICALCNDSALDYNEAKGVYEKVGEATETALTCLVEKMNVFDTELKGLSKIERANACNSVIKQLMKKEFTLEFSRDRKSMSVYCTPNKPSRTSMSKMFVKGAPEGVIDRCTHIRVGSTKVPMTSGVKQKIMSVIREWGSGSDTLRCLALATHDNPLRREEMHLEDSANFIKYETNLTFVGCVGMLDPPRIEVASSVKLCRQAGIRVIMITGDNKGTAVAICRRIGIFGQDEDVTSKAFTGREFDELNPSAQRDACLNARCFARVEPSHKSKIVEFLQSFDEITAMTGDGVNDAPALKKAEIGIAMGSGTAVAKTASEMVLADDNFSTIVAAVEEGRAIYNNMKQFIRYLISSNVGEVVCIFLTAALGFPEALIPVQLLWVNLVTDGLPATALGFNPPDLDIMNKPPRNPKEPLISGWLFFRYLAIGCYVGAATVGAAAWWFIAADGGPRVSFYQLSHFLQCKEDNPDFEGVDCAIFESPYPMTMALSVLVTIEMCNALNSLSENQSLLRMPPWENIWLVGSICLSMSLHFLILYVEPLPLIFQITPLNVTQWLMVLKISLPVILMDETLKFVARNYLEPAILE
UniProt P26678: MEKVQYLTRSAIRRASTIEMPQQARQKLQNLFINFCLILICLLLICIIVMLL
UniProt Q09472: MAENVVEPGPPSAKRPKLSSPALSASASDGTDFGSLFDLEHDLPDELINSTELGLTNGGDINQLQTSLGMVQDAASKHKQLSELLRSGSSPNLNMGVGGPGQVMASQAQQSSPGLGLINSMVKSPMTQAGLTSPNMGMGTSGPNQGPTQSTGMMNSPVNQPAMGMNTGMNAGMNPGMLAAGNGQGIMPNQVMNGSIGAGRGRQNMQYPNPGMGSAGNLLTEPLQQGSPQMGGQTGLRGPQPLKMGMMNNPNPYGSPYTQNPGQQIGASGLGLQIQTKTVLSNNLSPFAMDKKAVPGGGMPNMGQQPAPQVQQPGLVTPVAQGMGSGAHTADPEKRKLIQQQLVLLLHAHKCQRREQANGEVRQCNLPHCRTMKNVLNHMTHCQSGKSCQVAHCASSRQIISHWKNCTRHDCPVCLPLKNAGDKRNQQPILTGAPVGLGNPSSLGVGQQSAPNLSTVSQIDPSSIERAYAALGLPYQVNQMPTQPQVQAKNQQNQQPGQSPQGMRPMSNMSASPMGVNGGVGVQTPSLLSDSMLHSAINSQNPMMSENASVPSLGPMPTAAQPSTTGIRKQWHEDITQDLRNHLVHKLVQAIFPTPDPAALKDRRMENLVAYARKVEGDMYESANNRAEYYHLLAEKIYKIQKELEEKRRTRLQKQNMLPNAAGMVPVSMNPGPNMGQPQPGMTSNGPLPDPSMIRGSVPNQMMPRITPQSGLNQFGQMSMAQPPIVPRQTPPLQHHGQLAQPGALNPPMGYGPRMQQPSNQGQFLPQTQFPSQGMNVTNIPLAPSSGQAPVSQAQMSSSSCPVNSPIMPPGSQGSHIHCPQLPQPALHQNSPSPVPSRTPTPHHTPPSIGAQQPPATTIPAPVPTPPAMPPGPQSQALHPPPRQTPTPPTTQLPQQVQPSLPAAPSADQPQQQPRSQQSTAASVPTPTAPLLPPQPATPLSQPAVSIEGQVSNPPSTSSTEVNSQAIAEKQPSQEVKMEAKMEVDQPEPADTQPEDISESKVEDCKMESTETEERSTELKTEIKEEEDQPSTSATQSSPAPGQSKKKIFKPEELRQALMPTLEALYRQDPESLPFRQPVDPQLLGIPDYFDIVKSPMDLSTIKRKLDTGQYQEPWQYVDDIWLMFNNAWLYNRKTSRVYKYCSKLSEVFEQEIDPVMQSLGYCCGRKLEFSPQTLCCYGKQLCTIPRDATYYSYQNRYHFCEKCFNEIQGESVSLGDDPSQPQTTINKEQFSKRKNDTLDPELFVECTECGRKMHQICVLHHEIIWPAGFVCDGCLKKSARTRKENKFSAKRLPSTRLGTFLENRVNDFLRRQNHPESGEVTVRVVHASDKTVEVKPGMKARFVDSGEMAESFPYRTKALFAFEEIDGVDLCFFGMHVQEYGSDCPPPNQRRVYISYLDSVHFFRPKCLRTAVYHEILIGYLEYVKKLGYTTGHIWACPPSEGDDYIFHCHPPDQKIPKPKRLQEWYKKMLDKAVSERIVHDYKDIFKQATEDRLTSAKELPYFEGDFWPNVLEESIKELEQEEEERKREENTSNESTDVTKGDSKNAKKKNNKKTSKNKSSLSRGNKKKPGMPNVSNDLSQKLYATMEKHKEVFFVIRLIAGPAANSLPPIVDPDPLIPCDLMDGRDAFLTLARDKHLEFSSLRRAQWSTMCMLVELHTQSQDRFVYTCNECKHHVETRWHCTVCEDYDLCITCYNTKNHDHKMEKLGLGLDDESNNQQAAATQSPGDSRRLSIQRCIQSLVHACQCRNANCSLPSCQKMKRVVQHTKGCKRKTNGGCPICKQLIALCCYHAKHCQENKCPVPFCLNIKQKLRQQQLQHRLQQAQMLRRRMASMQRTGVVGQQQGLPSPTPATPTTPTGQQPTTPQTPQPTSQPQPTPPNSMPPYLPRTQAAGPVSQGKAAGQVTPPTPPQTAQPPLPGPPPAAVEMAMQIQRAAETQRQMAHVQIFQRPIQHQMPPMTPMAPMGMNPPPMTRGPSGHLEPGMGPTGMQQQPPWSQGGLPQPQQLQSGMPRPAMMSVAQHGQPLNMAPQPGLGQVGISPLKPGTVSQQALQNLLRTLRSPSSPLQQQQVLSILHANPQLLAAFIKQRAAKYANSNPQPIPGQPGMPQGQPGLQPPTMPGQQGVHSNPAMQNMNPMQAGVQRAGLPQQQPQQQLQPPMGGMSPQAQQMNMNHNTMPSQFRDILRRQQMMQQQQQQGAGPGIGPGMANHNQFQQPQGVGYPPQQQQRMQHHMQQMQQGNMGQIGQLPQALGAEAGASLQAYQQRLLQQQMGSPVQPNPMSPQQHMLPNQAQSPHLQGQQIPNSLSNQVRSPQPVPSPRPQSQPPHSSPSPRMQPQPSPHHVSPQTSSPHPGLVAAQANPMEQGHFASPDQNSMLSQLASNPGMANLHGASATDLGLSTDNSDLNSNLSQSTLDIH

**Q.** Which binding [1] does the source give for “p300 acetyltransferase, expressed in HEK293 cells (from UniProt Q09472 1-2414) (enzyme)” here?
**A.** binds

**Q.** And the binding [2]?
**A.** binds

**Q.** For “p300, endogenous in human heart (from UniProt Q09472 1-2414) (enzyme)”, which binding [3] is on record?
**A.** binds

**Q.** With “cardiac sarco-endoplasmic reticulum Ca2+ ATPase (SERCA2a), wild type, expressed in HEK293 cells (from UniProt P16615-2 1-997)” as the substance, how does the binding (phospholamban (PLN)) read?
**A.** binds
